According to patent US6057085A, “Color photographic recording material” (Agfa-Gevaert NV, priority 1997, dated 2000):

Key:
[1] = Change in green sensitivity ΔE(green) after 12 months' storage under normal room conditions
Method: (§1) A colour photographic recording material for colour negative development was produced by applying the following layers in the stated sequence onto a polyethylene naphthalate (PEN) film base having a thickness of 90 μm and provided on the front side with a coupling layer and on the reverse side with a magnetic recording layer (quantities in g/m^2):
(§2) After exposure with a grey wedge, development was performed in accordance with The British Journal of Photography, 1974, pages 597 and 598.
(§3) The sensitometric differences which are also described in table 1 were found.
**after 12 months' storage under normal room conditions

[2] = Change in blue sensitivity ΔE(blue) after 7 days' storage at 35° C./90% relative humidity (dye diffusion)
Method: as §1, §2, §3
***after 7 days' storage at 35° C./90% relative humidity

[3] = ΔDmin vs material 1.1 after colour negative development (removal of yellow filter dye during processing)
Method: as §1, §2

[4] = dye incorporated as SPD (solid particle dispersion) in 9th layer
[5] = dye incorporated as OFD (dye emulsion) in 9th layer

Row | Compound | ΔE (green) ([1]; SPD) [log H units] | DE (blue) ([2]; SPD) | ΔDmin vs 1.1 [3, 4] | ΔE (green) ([1]; OFD) [log H units] | DE (blue) ([2]; OFD) | ΔDmin vs 1.1 [3, 5]
1 | CN(C)c1ccc(C=C(C#N)c2nc3cc(C(=O)O)ccc3o2)cc1 [Dye I-1] | -0.02 | -0.07 | 0.00 |  |  | 
2 | Cc1cc(N(CC(=O)OC(C)COC(C)COC(C)(C)C)CC(=O)OC(C)COC(C)COC(C)(C)C)ccc1C=C(C#N)c1nc2cc(C(=O)O)ccc2o1 (stereo not drawn) [Dye I-6] |  |  |  | -0.03 | -0.05 | 0.01
3 | CCOCCOCCN(CCOCCOCC)c1ccc(C=C(C#N)c2nc3cc(S(=O)(=O)NC(=O)CC)ccc3o2)cc1 [Dye I-10] |  |  |  | -0.02 | -0.03 | 0.01
4 | CCOCCOCCN(CCOCCOCC)c1ccc(C=C(C#N)c2nc3cc(S(=O)(=O)NC(=O)CC)ccc3s2)cc1 [Dye I-22] |  |  |  | -0.03 | -0.04 | 0.00
5 | CCCCOC(=O)CN(CC(=O)OCCCC)c1ccc(C=C(C#N)C(=O)c2ccc(NS(C)(=O)=O)cc2)c(C)c1 [GF-2] |  |  |  | -0.13 | -0.15 | 0.01
6 | CCCCS(=O)(=O)Nc1ccc(C2=C(C#N)C(=O)OC2=Cc2ccco2)cc1 [GF-3] | -0.02 | -0.21 | 0.00 | -0.03 | -0.25 | 0.00
7 | CCCCCCCCCCCCCCCCS(=O)(=O)Nc1ccc2nc(C(C#N)=Cc3ccc(N(CC)CC)cc3C)sc2c1 [GF-4] |  |  |  | -0.02 | -0.02 | 0.65
8 | CCCCCCCCCCCCNc1cc(C)c(C=C(C#N)c2nc3ccc(NS(C)(=O)=O)cc3o2)cc1C [GF-5] |  |  |  | -0.02 | -0.03 | 0.62
